In the supplement of paper PMC8728848:
Some of the results follow.

Experiments:
Assay in all cases: glycan array binding signal (z-score within array); higher = stronger binding
Conditions in all cases: glycan notation: IUPAC condensed, linker removed
[1] = target: Neu5Ac(a2-6)Gal(b1-4)GlcNAc(b1-3)Gal(b1-4)GlcNAc(b1-3)GalNAc
Outline: (§1)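 Glycan array data came from 3228 arrays in the Consortium for Functional Glycomics database, and only arrays with an available protein sequence were kept. Glycan names were put into IUPAC-condensed notation, and columns mapping to the same glycan were averaged. The binding signal is a within-array Z-score, averaged across arrays of one protein sequence run at different concentrations or buffers and across linkers. A negative Z-score can be read as non-binding.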

[2] = target: Neu5Ac(a2-6)Gal(b1-4)GlcNAc(b1-3)Gal(b1-4)GlcNAc(b1-3)[Neu5Ac(a2-6)Gal(b1-4)GlcNAc(b1-3)Gal(b1-4)GlcNAc(b1-6)]GalNAc
Outline: as §1

[3] = target: Neu5Ac(a2-6)Gal(b1-4)GlcNAc(b1-3)Gal(b1-4)GlcNAc(b1-6)[Gal(b1-3)]GalNAc
Outline: as §1

[4] = target: Neu5Ac(a2-6)Gal(b1-4)GlcNAc(b1-3)Gal(b1-4)[Fuc(a1-3)]GlcNAc(b1-3)Gal(b1-4)[Fuc(a1-3)]GlcNAc
Outline: as §1

[5] = target: Neu5Ac(a2-6)Gal(b1-4)GlcNAc(b1-3)GalNAc
Outline: as §1

[6] = target: Neu5Ac(a2-6)Gal(b1-4)GlcNAc(b1-3)[Neu5Ac(a2-6)Gal(b1-4)GlcNAc(b1-6)]GalNAc
Outline: as §1

[7] = target: Neu5Ac(a2-6)Gal(b1-4)GlcNAc(b1-6)GalNAc
Outline: as §1

[8] = target: Neu5Ac(a2-6)Gal(b1-4)GlcNAc(b1-6)[Gal(b1-3)GlcNAc(b1-3)]Gal(b1-4)Glc
Outline: as §1

[9] = target: Neu5Ac(a2-6)Gal(b1-4)GlcNAc(b1-6)[Gal(b1-3)]GalNAc
Outline: as §1

[10] = target: Neu5Ac(a2-6)Gal(b1-4)GlcNAc6S
Outline: as §1

Neu5Ac(a2-6)GalNAc = target: Neu5Ac(a2-6)GalNAc
Outline: as §1

[11] = target: Neu5Ac(a2-6)GalNAc(b1-4)GlcNAc
Outline: as §1

[12] = target: Neu5Ac(a2-6)GalNAc(b1-4)GlcNAc6S
Outline: as §1

[13] = target: Neu5Ac(a2-6)GlcNAc(b1-4)GlcNAc
Outline: as §1

[14] = target: Neu5Ac(a2-6)GlcNAc(b1-4)GlcNAc(b1-4)GlcNAc
Outline: as §1

Neu5Ac(a2-8)Neu5Ac = target: Neu5Ac(a2-8)Neu5Ac
Outline: as §1

[15] = target: Neu5Ac(a2-8)Neu5Ac(a2-3)Gal(b1-3)GalNAc(b1-4)[Neu5Ac(a2-3)]Gal(b1-4)Glc
Outline: as §1

[16] = target: Neu5Ac(a2-8)Neu5Ac(a2-3)Gal(b1-3)GalNAc(b1-4)[Neu5Ac(a2-8)Neu5Ac(a2-3)]Gal(b1-4)Glc
Outline: as §1

[17] = target: Neu5Ac(a2-8)Neu5Ac(a2-3)Gal(b1-4)Glc
Outline: as §1

[18] = target: Neu5Ac(a2-8)Neu5Ac(a2-3)Gal(b1-4)GlcNAc
Outline: as §1

[19] = target: Neu5Ac(a2-8)Neu5Ac(a2-3)[Gal(b1-3)GalNAc(b1-4)]Gal(b1-4)Glc
Outline: as §1

[20] = target: Neu5Ac(a2-8)Neu5Ac(a2-3)[GalNAc(b1-4)]Gal(b1-4)Glc
Outline: as §1

[21] = target: Neu5Ac(a2-8)Neu5Ac(a2-8)Neu5Ac
Outline: as §1

[22] = target: Neu5Ac(a2-8)Neu5Ac(a2-8)Neu5Ac(a2-3)Gal(b1-4)Glc
Outline: as §1

[23] = target: Neu5Ac(a2-8)Neu5Ac(a2-8)Neu5Ac(a2-3)[Gal(b1-3)GalNAc(b1-4)]Gal(b1-4)Glc
Outline: as §1

[24] = target: Neu5Ac(a2-8)Neu5Ac(a2-8)Neu5Ac(a2-3)[GalNAc(b1-4)]Gal(b1-4)Glc
Outline: as §1

[25] = target: Neu5Ac(a2-8)Neu5Ac(a2-8)Neu5Ac(a2-8)Neu5Ac(a2-3)[GalNAc(b1-4)]Gal(b1-4)Glc
Outline: as §1

[26] = target: Neu5Ac(a2-8)Neu5Gc(a2-3)Gal(b1-4)GlcNAc
Outline: as §1

[27] = target: Neu5Ac(b2-6)Gal(b1-4)GlcNAc
Outline: as §1

Neu5Ac(b2-6)GalNAc = target: Neu5Ac(b2-6)GalNAc
Outline: as §1

[28] = target: Neu5Ac9Ac(a2-3)Gal(b1-3)GlcNAc
Outline: as §1

[29] = target: Neu5Ac9Ac(a2-3)Gal(b1-4)GlcNAc
Outline: as §1

[30] = target: Neu5Ac9Ac(a2-6)Gal(b1-4)GlcNAc
Outline: as §1

[31] = target: Neu5Gc(a2-3)Gal(b1-3)GlcNAc
Outline: as §1

[32] = target: Neu5Gc(a2-3)Gal(b1-3)[Fuc(a1-4)]GlcNAc
Outline: as §1

Neu5Gc(a2-3)Gal(b1-4)Glc = target: Neu5Gc(a2-3)Gal(b1-4)Glc
Outline: as §1

[33] = target: Neu5Gc(a2-3)Gal(b1-4)GlcNAc
Outline: as §1

[34] = target: Neu5Gc(a2-3)Gal(b1-4)GlcNAc(b1-3)Gal(b1-4)GlcNAc(b1-2)Man(a1-3)[Neu5Gc(a2-3)Gal(b1-4)GlcNAc(b1-3)Gal(b1-4)GlcNAc(b1-2)Man(a1-6)]Man(b1-4)GlcNAc(b1-4)GlcNAc
Outline: as §1

[35] = target: Neu5Gc(a2-3)Gal(b1-4)[Fuc(a1-3)]GlcNAc
Outline: as §1

[36] = target: Neu5Gc(a2-6)Gal(b1-4)GlcNAc
Outline: as §1

Neu5Gc(a2-6)GalNAc = target: Neu5Gc(a2-6)GalNAc
Outline: as §1

[37] = target: Neu5Gc(a2-8)Neu5Ac(a2-3)Gal(b1-4)GlcNAc
Outline: as §1

[38] = target: Neu5Gc(a2-8)Neu5Gc(a2-3)Gal(b1-4)GlcNAc
Outline: as §1

[39] = target: Neu5Gc(a2-8)Neu5Gc(a2-3)Gal(b1-4)GlcNAc(b1-3)Gal(b1-4)GlcNAc
Outline: as §1

[40] = target: Neu5Gc(a2-8)Neu5Gc(a2-6)Gal(b1-4)GlcNAc
Outline: as §1

[41] = target: Neu5Gc(b2-6)Gal(b1-4)GlcNAc
Outline: as §1

B1: SJCP1084 (Schistosoma japonicum) (protein)
chain: MRIINLVIISTALLLINLLQTKSQANGEDTKNGTPDDPGLTKSTELKVEVQALLKDKKTNMRVKWNENLLDNTKPEYHNLRDEACELLLQIVRSVVPLSQDDGECKDVTFTKYVVGTKDGAVNVKLTITFKDSVAINQKPMDLKLKLENDFKNLQSESTLKATKPTFTVKVEKRLIPISKPQTTPPTTAKNDASKENVGDIGGEDSTVPTAAPATAASANEEKDEGDKDNKDSQHPNVLTSNVNDRNLIIALVALMILAIGVALTAAVKQR
[1]
  glycan array binding signal (z-score): -1.16
[2]
  glycan array binding signal (z-score): 1.02
[3]
  glycan array binding signal (z-score): -0.586
[4]
  glycan array binding signal (z-score): -0.346
[5]
  glycan array binding signal (z-score): -0.291
[6]
  glycan array binding signal (z-score): -0.669
[7]
  glycan array binding signal (z-score): -0.04
[8]
  glycan array binding signal (z-score): -0.969
[9]
  glycan array binding signal (z-score): -0.115
[10]
  glycan array binding signal (z-score): -1.81
Neu5Ac(a2-6)GalNAc
  glycan array binding signal (z-score): 0.704
[11]
  glycan array binding signal (z-score): -1.02
[12]
  glycan array binding signal (z-score): -0.632
[13]
  glycan array binding signal (z-score): 0.142
[14]
  glycan array binding signal (z-score): -0.691
Neu5Ac(a2-8)Neu5Ac
  glycan array binding signal (z-score): -0.077
[15]
  glycan array binding signal (z-score): 1.24
[16]
  glycan array binding signal (z-score): -0.517
[17]
  glycan array binding signal (z-score): 1.25
[18]
  glycan array binding signal (z-score): -1.65
[19]
  glycan array binding signal (z-score): -0.075
[20]
  glycan array binding signal (z-score): 0.433
[21]
  glycan array binding signal (z-score): 0.443
[22]
  glycan array binding signal (z-score): 0.152
[23]
  glycan array binding signal (z-score): -0.802
[24]
  glycan array binding signal (z-score): -0.842
[25]
  glycan array binding signal (z-score): -0.607
[26]
  glycan array binding signal (z-score): -0.605
[27]
  glycan array binding signal (z-score): -0.022
Neu5Ac(b2-6)GalNAc
  glycan array binding signal (z-score): -0.824
[28]
  glycan array binding signal (z-score): 1.34
[29]
  glycan array binding signal (z-score): -1.05
[30]
  glycan array binding signal (z-score): 0.524
[31]
  glycan array binding signal (z-score): -0.767
[32]
  glycan array binding signal (z-score): 2.57
Neu5Gc(a2-3)Gal(b1-4)Glc
  glycan array binding signal (z-score): -0.244
[33]
  glycan array binding signal (z-score): -0.592
[34]
  glycan array binding signal (z-score): -0.922
[35]
  glycan array binding signal (z-score): 0.638
[36]
  glycan array binding signal (z-score): -0.032
Neu5Gc(a2-6)GalNAc
  glycan array binding signal (z-score): 1.07
[37]
  glycan array binding signal (z-score): -0.618
[38]
  glycan array binding signal (z-score): -1.21
[39]
  glycan array binding signal (z-score): -1.55
[40]
  glycan array binding signal (z-score): -0.143
[41]
  glycan array binding signal (z-score): -0.08
